Experimental data reported in the supplement of paper PMC8728848.
The list shows a part of the results.

Assays:
Test in all cases: glycan array binding signal (z-score within array); higher = stronger binding
Settings in all cases: glycan notation: IUPAC condensed, linker removed
[1] = molecular target: Gal(b1-4)Glc
Outline: (§1)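 Glycan array data came from 3228 arrays in the Consortium for Functional Glycomics database, and only arrays with an available protein sequence were kept. Glycan names were put into IUPAC-condensed notation, and columns mapping to the same glycan were averaged. The binding signal is a within-array Z-score, averaged across arrays of one protein sequence run at different concentrations or buffers and across linkers. A negative Z-score can be read as non-binding.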

[2] = molecular target: Gal(b1-4)Glc6S
Outline: as §1

[3] = molecular target: Gal(b1-4)GlcNAc
Outline: as §1

[4] = molecular target: Gal(b1-4)GlcNAc(a1-6)Gal(b1-4)GlcNAc
Outline: as §1

[5] = molecular target: Gal(b1-4)GlcNAc(b1-2)Man
Outline: as §1

[6] = molecular target: Gal(b1-4)GlcNAc(b1-2)Man(a1-3)Man(b1-4)GlcNAc(b1-4)GlcNAc
Outline: as §1

[7] = molecular target: Gal(b1-4)GlcNAc(b1-2)Man(a1-3)[Gal(b1-4)GlcNAc(b1-2)Man(a1-6)]Man(b1-4)GlcNAc(b1-4)GlcNAc
Outline: as §1

[8] = molecular target: Gal(b1-4)GlcNAc(b1-2)Man(a1-3)[Gal(b1-4)GlcNAc(b1-2)Man(a1-6)]Man(b1-4)GlcNAc(b1-4)[Fuc(a1-6)]GlcNAc
Outline: as §1

[9] = molecular target: Gal(b1-4)GlcNAc(b1-2)Man(a1-3)[Gal(b1-4)GlcNAc(b1-2)Man(a1-6)][Gal(b1-4)GlcNAc(b1-4)]Man(b1-4)GlcNAc(b1-4)[Fuc(a1-6)]GlcNAc
Outline: as §1

[10] = molecular target: Gal(b1-4)GlcNAc(b1-2)Man(a1-3)[Gal(b1-4)GlcNAc(b1-2)Man(a1-6)][GlcNAc(b1-4)]Man(b1-4)GlcNAc(b1-4)[Fuc(a1-6)]GlcNAc
Outline: as §1

[11] = molecular target: Gal(b1-4)GlcNAc(b1-2)Man(a1-3)[GlcNAc(b1-2)Man(a1-6)]Man(b1-4)GlcNAc(b1-4)GlcNAc
Outline: as §1

[12] = molecular target: Gal(b1-4)GlcNAc(b1-2)Man(a1-3)[GlcNAc(b1-4)][Gal(b1-4)GlcNAc(b1-2)Man(a1-6)]Man(b1-4)GlcNAc(b1-4)GlcNAc
Outline: as §1

[13] = molecular target: Gal(b1-4)GlcNAc(b1-2)Man(a1-3)[Man(a1-6)]Man(b1-4)GlcNAc(b1-4)GlcNAc
Outline: as §1

[14] = molecular target: Gal(b1-4)GlcNAc(b1-2)Man(a1-6)Man(b1-4)GlcNAc(b1-4)GlcNAc
Outline: as §1

[15] = molecular target: Gal(b1-4)GlcNAc(b1-2)Man(a1-6)[GlcNAc(b1-2)Man(a1-3)]Man(b1-4)GlcNAc(b1-4)GlcNAc
Outline: as §1

[16] = molecular target: Gal(b1-4)GlcNAc(b1-2)Man(a1-6)[Man(a1-3)]Man(b1-4)GlcNAc(b1-4)GlcNAc
Outline: as §1

[17] = molecular target: Gal(b1-4)GlcNAc(b1-2)[Gal(b1-4)GlcNAc(b1-4)]Man(a1-3)[Gal(b1-4)GlcNAc(b1-2)Man(a1-6)]Man(b1-4)GlcNAc(b1-4)GlcNAc
Outline: as §1

[18] = molecular target: Gal(b1-4)GlcNAc(b1-2)[Gal(b1-4)GlcNAc(b1-4)]Man(a1-3)[Gal(b1-4)GlcNAc(b1-2)[Gal(b1-4)GlcNAc(b1-6)]Man(a1-6)]Man(b1-4)GlcNAc(b1-4)GlcNAc
Outline: as §1

[19] = molecular target: Gal(b1-4)GlcNAc(b1-2)[Gal(b1-4)GlcNAc(b1-4)]Man(a1-3)[GlcNAc(b1-4)][Gal(b1-4)GlcNAc(b1-2)Man(a1-6)]Man(b1-4)GlcNAc(b1-4)GlcNAc
Outline: as §1

[20] = molecular target: Gal(b1-4)GlcNAc(b1-2)[Gal(b1-4)GlcNAc(b1-4)]Man(a1-3)[GlcNAc(b1-4)][Gal(b1-4)GlcNAc(b1-2)[Gal(b1-4)GlcNAc(b1-6)]Man(a1-6)]Man(b1-4)GlcNAc(b1-4)GlcNAc
Outline: as §1

[21] = molecular target: Gal(b1-4)GlcNAc(b1-2)[Gal(b1-4)GlcNAc(b1-6)]Man(a1-6)[Gal(b1-4)GlcNAc(b1-2)Man(a1-3)]Man(b1-4)GlcNAc(b1-4)GlcNAc
Outline: as §1

[22] = molecular target: Gal(b1-4)GlcNAc(b1-2)[Gal(b1-4)GlcNAc(b1-6)]Man(a1-6)[Gal(b1-4)GlcNAc(b1-2)Man(a1-3)]Man(b1-4)GlcNAc(b1-4)[Fuc(a1-6)]GlcNAc
Outline: as §1

[23] = molecular target: Gal(b1-4)GlcNAc(b1-2)[Gal(b1-4)GlcNAc(b1-6)]Man(a1-6)[GlcNAc(b1-4)][Gal(b1-4)GlcNAc(b1-2)Man(a1-3)]Man(b1-4)GlcNAc(b1-4)GlcNAc
Outline: as §1

[24] = molecular target: Gal(b1-4)GlcNAc(b1-2)[Gal(b1-4)GlcNAc(b1-6)]Man(a1-6)[GlcNAc(b1-4)][Gal(b1-4)GlcNAc(b1-2)[Gal(b1-4)GlcNAc(b1-4)]Man(a1-3)]Man(b1-4)GlcNAc(b1-4)[Fuc(a1-6)]GlcNAc
Outline: as §1

[25] = molecular target: Gal(b1-4)GlcNAc(b1-3)Gal(b1-3)GalNAc
Outline: as §1

[26] = molecular target: Gal(b1-4)GlcNAc(b1-3)Gal(b1-3)GlcNAc
Outline: as §1

[27] = molecular target: Gal(b1-4)GlcNAc(b1-3)Gal(b1-4)Glc
Outline: as §1

[28] = molecular target: Gal(b1-4)GlcNAc(b1-3)Gal(b1-4)GlcNAc
Outline: as §1

[29] = molecular target: Gal(b1-4)GlcNAc(b1-3)Gal(b1-4)GlcNAc(b1-2)Man(a1-3)[Gal(b1-4)GlcNAc(b1-3)Gal(b1-4)GlcNAc(b1-2)Man(a1-6)]Man(b1-4)GlcNAc(b1-4)GlcNAc
Outline: as §1

[30] = molecular target: Gal(b1-4)GlcNAc(b1-3)Gal(b1-4)GlcNAc(b1-2)Man(a1-3)[Gal(b1-4)GlcNAc(b1-3)Gal(b1-4)GlcNAc(b1-2)Man(a1-6)]Man(b1-4)GlcNAc(b1-4)[Fuc(a1-6)]GlcNAc
Outline: as §1

B1: Protein L(A-C2) (Finegoldia magna), Q51912 (protein)
chain: ADEPIDLEKLEEKRDKENVGNLPKFDNEVKDGSENPMAKYPDFDDEASTRFETENNEFEEKKVVSDNFFDQSEHPFVENKEETPETPETDSEEEVTIKANLIFANGSTQTAEFKGTFEKATSEAYAYADTLKKDNGEYTVDVADKGYTLNIKFAGKEKTPEEPKEEVTIKANLIYADGKTQTAEFKGTFEEATAEAYRYADALKKDNGEYTVDVADKGYTLNIKFAGKEKTPEEPKEEVTIKANLIYADGKTQTAEFKGTFEEATAEAYRYADLLAKENGKYTVDVADKGYTLNIKFAGKEKTPEEPKEEVTIKANLIYADGKTQTAEFKGTFAEATAEAYRYADLLAKENGKYTADLEDGGYTINIRFAGKKVDEKPEEKEQVTIKENIYFEDGTVQTATFKGTFAEATAEAYRYADLLSKEHGKYTADLEDGGYTINIRFAGKEEPEETPEKPEVQDGYASYEEAEAAAKEALKNDDVNKSYTIRQGADGRYYYVLSPVEAEEEKPEAQNGYATYEEAEAAAKKALENDPINKSYSIRQGADGRYYYVLSPVEAE
**Q.** For B1, which “glycan array binding signal (z-score)” value [1] is on record?
**A.** -0.043

**Q.** What about the “glycan array binding signal (z-score)” value [2] of the same binder?
**A.** -0.431

**Q.** What about the “glycan array binding signal (z-score)” value [3] of the same binder?
**A.** -0.975

**Q.** And the “glycan array binding signal (z-score)” value [4]?
**A.** -0.588

**Q.** What about the “glycan array binding signal (z-score)” value [5] of the same binder?
**A.** -0.561

**Q.** What about the “glycan array binding signal (z-score)” value [6] of the same binder?
**A.** -0.596

**Q.** What about the “glycan array binding signal (z-score)” value [7] of the same binder?
**A.** -0.233

**Q.** And the “glycan array binding signal (z-score)” value [8]?
**A.** 0.813

**Q.** And the “glycan array binding signal (z-score)” value [9]?
**A.** -0.282

**Q.** And the “glycan array binding signal (z-score)” value [10]?
**A.** -0.609

**Q.** And the “glycan array binding signal (z-score)” value [11]?
**A.** 0.165

**Q.** And the “glycan array binding signal (z-score)” value [12]?
**A.** -0.797

**Q.** What about the “glycan array binding signal (z-score)” value [13] of the same binder?
**A.** -1.12

**Q.** What about the “glycan array binding signal (z-score)” value [14] of the same binder?
**A.** 0.105

**Q.** And the “glycan array binding signal (z-score)” value [15]?
**A.** -0.326

**Q.** And the “glycan array binding signal (z-score)” value [16]?
**A.** -0.918

**Q.** What about the “glycan array binding signal (z-score)” value [17] of the same binder?
**A.** 0.148

**Q.** What about the “glycan array binding signal (z-score)” value [18] of the same binder?
**A.** -0.987

**Q.** And the “glycan array binding signal (z-score)” value [19]?
**A.** 1.09

**Q.** What about the “glycan array binding signal (z-score)” value [20] of the same binder?
**A.** -0.468

**Q.** And the “glycan array binding signal (z-score)” value [21]?
**A.** -0.74

**Q.** And the “glycan array binding signal (z-score)” value [22]?
**A.** 0.398

**Q.** And the “glycan array binding signal (z-score)” value [23]?
**A.** -0.175

**Q.** And the “glycan array binding signal (z-score)” value [24]?
**A.** -0.497

**Q.** And the “glycan array binding signal (z-score)” value [25]?
**A.** 0.897

**Q.** And the “glycan array binding signal (z-score)” value [26]?
**A.** 0.036

**Q.** What about the “glycan array binding signal (z-score)” value [27] of the same binder?
**A.** -0.097

**Q.** And the “glycan array binding signal (z-score)” value [28]?
**A.** -0.832

**Q.** What about the “glycan array binding signal (z-score)” value [29] of the same binder?
**A.** 2.57

**Q.** And the “glycan array binding signal (z-score)” value [30]?
**A.** 0.357
